From patent US20100015144A1
Results are given in words; binding and its absence hold for the method and conditions named. Some results given as binding are weak or reduced against the parent protein; the word gives no strength.

Chains of the proteins cited; added tags and fusions are not shown. Lines headed by an entry give the natural chain unless they say otherwise; changes in a name come on top.
UniProt P27037: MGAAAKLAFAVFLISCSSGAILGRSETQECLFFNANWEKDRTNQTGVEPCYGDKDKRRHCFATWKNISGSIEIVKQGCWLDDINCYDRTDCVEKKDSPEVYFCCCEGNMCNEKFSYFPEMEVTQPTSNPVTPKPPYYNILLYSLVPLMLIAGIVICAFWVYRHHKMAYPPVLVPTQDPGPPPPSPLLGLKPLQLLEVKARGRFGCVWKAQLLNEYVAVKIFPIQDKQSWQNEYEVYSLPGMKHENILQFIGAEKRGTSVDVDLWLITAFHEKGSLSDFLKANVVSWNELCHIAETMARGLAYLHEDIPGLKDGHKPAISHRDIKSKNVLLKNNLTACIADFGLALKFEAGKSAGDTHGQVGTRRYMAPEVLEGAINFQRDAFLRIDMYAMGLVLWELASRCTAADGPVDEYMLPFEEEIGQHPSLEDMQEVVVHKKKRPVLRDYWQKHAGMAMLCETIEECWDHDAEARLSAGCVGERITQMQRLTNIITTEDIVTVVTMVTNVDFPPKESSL

Molecular target: T1, GDF-11 (UniProt O95390)
T1 sequence (looked up): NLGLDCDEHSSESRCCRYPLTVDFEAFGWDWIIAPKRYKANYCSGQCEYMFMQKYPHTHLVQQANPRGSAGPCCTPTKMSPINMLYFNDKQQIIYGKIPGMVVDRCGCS
Experiment: Biacore SPR, GDF-11 immobilized on CM5 chip

## ActRIIa-mFc (from UniProt P27037 21-135) (Fc fusion)
  binding: binds
